In paper doi:10.1101/2024.03.12.584565:
Numbering of substitutions follows the chain as printed. These are yes or no findings as the source states them, for the method shown. For some of these results: In cells and extracts the contact can be indirect. Some binding calls cover weakened binding; strength is not graded here. For some of these results: Sequences can lack the tags named with a protein.

Protein sequences, listed by entry. Tags and fused reporters are not part of them. Residues count along the entry.
UniProt Q96GD4, residues 65-344: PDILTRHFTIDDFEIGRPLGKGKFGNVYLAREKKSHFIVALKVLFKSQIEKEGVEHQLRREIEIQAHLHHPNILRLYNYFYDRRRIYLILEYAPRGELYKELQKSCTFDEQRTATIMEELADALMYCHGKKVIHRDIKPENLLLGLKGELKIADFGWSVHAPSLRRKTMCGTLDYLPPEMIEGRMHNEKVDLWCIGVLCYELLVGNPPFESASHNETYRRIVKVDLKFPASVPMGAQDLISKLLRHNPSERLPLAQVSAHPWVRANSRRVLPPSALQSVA
UniProt Q9NQS7, residues 819-918: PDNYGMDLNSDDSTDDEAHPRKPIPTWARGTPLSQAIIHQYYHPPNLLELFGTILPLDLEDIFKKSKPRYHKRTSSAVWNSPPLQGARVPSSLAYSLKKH
UniProt Q96FF9: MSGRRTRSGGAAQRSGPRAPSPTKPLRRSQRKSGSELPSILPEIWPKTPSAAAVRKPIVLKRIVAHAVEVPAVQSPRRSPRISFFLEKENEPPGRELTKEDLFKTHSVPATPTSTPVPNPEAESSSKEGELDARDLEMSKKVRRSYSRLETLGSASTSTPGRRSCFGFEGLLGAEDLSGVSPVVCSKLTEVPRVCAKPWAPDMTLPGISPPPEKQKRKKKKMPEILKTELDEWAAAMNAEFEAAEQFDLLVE

Legend:
[1] = molecular target: human aurora B kinase (amino acids 65-344) (human) (UniProt Q96GD4); experiment: co-purification of co-expressed proteins
[2] = molecular target: T1, Pds5b-3A-Flag in HeLaK cells (human) (UniProt Q9NTI5); experiment: co-IP
T1 sequence: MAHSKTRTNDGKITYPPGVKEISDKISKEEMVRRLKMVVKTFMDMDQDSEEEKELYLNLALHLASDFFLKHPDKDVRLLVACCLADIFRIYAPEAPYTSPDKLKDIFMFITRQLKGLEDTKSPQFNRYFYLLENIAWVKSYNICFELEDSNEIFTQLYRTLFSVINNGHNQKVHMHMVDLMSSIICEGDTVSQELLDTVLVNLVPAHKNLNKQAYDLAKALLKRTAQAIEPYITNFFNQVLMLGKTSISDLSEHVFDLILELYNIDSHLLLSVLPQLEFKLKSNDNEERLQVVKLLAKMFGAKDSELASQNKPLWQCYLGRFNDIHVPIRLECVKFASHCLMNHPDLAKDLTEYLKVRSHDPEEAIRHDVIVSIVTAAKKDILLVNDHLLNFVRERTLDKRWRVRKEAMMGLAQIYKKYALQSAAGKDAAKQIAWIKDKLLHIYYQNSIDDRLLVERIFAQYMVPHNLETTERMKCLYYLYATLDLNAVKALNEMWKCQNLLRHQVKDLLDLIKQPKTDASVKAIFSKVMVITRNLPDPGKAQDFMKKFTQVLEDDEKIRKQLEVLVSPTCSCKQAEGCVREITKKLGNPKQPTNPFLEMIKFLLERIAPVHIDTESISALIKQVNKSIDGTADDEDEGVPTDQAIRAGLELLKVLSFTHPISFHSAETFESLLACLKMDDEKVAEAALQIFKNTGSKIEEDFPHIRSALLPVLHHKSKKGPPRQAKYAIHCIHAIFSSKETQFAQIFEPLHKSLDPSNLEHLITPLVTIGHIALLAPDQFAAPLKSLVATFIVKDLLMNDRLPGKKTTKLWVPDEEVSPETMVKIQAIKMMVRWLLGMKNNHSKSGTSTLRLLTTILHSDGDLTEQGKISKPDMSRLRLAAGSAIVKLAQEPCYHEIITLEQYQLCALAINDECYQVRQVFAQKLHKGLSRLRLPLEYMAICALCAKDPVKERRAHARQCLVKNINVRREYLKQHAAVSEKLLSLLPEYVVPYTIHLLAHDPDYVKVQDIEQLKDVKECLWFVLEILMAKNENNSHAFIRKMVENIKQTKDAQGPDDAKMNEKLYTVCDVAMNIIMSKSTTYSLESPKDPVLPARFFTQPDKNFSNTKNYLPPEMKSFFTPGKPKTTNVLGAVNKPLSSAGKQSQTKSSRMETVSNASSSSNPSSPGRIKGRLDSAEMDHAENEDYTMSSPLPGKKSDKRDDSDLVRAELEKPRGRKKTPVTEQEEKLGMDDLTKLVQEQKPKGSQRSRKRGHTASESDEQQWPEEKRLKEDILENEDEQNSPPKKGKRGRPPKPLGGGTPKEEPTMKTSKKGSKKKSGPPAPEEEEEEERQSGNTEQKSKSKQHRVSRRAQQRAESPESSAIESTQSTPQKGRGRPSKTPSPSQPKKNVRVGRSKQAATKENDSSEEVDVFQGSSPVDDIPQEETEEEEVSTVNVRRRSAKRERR

[3] = molecular target: T2, Pds5b-2A-Flag in HeLaK cells (human) (UniProt Q9NTI5); experiment: co-IP
T2 sequence: T1 sequence with S1161A, S1166A, A1177S, A1182S, A1209S

[4] = molecular target: T3, Pds5b-5A-Flag in HeLaK cells (human) (UniProt Q9NTI5); experiment: co-IP
T3 sequence: T1 sequence with S1161A, S1166A

binding [2] | binding [3] | binding [4] | Substance | binding [1]
– | – | – | INCENP (amino acids 819-918) (from UniProt Q9NQS7 819-918) (domain or fragment) | binds
binds | binds | binds | endogenous sororin (from UniProt Q96FF9 1-252) | –
